Assay results published in publication PMC6152055.
For at least one entry, the source does not settle the construct or the ends of the probe. A negative result means that nothing was seen under these conditions.

System: PnbHLH1 (Panax notoginseng)
Assay: EMSA
Conditions: EMSA kit (PIERCE) standard procedure, room temperature; salt and pH not stated; recombinant protein; protein details: His (pET-28a, NdeI/SalI); label: biotin

AATGATTATTTTGGGGAGATTATTTTGGGGAGATTATTGGGA (double strand) [mE-box mutant probe]
binding result: no binding
